Results on eleven compounds are retold here after the supplement of paper PMC4604168 (melanoma cell lines).

Common to all, as to assay: cleaved PARP positive nuclei fraction relative to DMSO control; melanoma cells; higher = more apoptosis
Common to all, as to details: library dose: low library concentration; 72 h

For experiment [1], the system named is MZ2-MEL.
The subject of experiment [2] is MeWo.
Experiment [3] relates to RPMI7951.
Experiment [4] concerns RVH-421.
Experiment [5] has as its system SkMel28.
The subject of experiment [6] is SkMel2.
Experiment [7] concerns SkMel30.
In experiment [8] the test system is UACC62.

This is one part of the list. Single values are uncertain, as repeats are few or missing.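 Imaging used 1,536-well plates; nuclei positive for cleaved PARP by antibody were divided by total DNA-stained nuclei to yield the apoptosis fraction. Doses for screening kept most cells viable, and cell lines differ markedly in resting and induced cleaved-PARP levels.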

Take `CN(c1ncccc1CNc1nc(Nc2ccc3c(c2)CC(=O)N3)ncc1C(F)(F)F)S(C)(=O)=O` + C=C(c1ccc(C(=O)O)cc1)c1cc2c(cc1C)C(C)(C)CCC2(C)C [Bexarotene] (first compound 0.08 µM, partner dose 2 µM): the “cleaved PARP positive nuclei fraction” value is 232% in experiment [1]; 38.8% in experiment [2]; 177% in experiment [3]; 82% in experiment [4]; 155% in experiment [5]; 82.7% in experiment [6]. Also, the figures for the “cleaved PARP positive nuclei fraction” value in experiment [7] and in experiment [8] were 35.8% and 63.9%, respectively.

In the case of `C[C@]1(O)C[C@@H](c2nc(-c3ccc4ccc(-c5ccccc5)nc4c3)c3c(N)nccn32)C1` + C=C(c1ccc(C(=O)O)cc1)c1cc2c(cc1C)C(C)(C)CCC2(C)C [Bexarotene] (first compound 0.4 µM, partner dose 2 µM), the “cleaved PARP positive nuclei fraction” value came out at 68.4% in experiment [1]; 100% in experiment [2]; 136% in experiment [3]; 207% in experiment [4]; 113% in experiment [5]; 112% in experiment [6]. Besides, the results for the “cleaved PARP positive nuclei fraction” value in experiment [7] and in experiment [8] were 79.6% and 109%, respectively.

On to `CC(=O)O[C@@]12CO[C@@H]1C[C@H](O)[C@@]1(C)C(=O)[C@H](O)C3=C(C)[C@@H](OC(=O)[C@H](O)[C@@H](NC(=O)OC(C)(C)C)c4ccccc4)C[C@@](O)([C@@H](OC(=O)c4ccccc4)[C@H]21)C3(C)C` [Docetaxel] + Cn1c(=O)n(-c2ccc(C(C)(C)C#N)cc2)c2c3cc(-c4cnc5ccccc5c4)ccc3ncc21 [NVP-BEZ235] (first compound 0.0001 µM, partner dose 0.004 µM), for which the “cleaved PARP positive nuclei fraction” value in experiment [1] was 616%; in experiment [2] it was 683%; in experiment [3], 258%; in experiment [4] it was 205%; in experiment [5], 97.2%; in experiment [6], 788%. Moreover, the “cleaved PARP positive nuclei fraction” value in experiment [7] is 299%; in experiment [8] it was 213%.

As for `NC(=O)c1ccc(N(C(N)=O)c2c(F)cccc2F)nc1-c1ccc(F)cc1F` + Cc1nc(Nc2ncc(C(=O)Nc3c(C)cccc3Cl)s2)cc(N2CCN(CCO)CC2)n1 [dasatanib] (first compound 0.4 µM, partner dose 0.004 µM), the “cleaved PARP positive nuclei fraction” value in experiment [1] worked out at 147%; in experiment [2], 130%; in experiment [3], 121%; in experiment [4], 144%; in experiment [5], 51.5%; in experiment [6], 98.5%. For the same compound, the “cleaved PARP positive nuclei fraction” value came out at 61.6% in experiment [7] and 120% in experiment [8].

Turning to `NC(=O)c1ccc(N(C(N)=O)c2c(F)cccc2F)nc1-c1ccc(F)cc1F` + COc1ccc(C2=N[C@@H](c3ccc(Cl)cc3)[C@@H](c3ccc(Cl)cc3)N2C(=O)N2CCNC(=O)C2)c(OC(C)C)c1 [Nutlin-3] (first compound 0.4 µM, partner dose 0.1 µM), the “cleaved PARP positive nuclei fraction” value was found to be 29.9% in experiment [1]; 208% in experiment [2]; 33.3% in experiment [3]; 67% in experiment [4]; 20.9% in experiment [5]; 190% in experiment [6]. The “cleaved PARP positive nuclei fraction” value in experiment [7] was determined as 81.1%; in experiment [8], 158%.

For the compound `CC1(C)CCC(c2ccc(Cl)cc2)=C(CN2CCN(c3ccc(C(=O)NS(=O)(=O)c4ccc(N[C@H](CCN5CCOCC5)CSc5ccccc5)c(S(=O)(=O)C(F)(F)F)c4)cc3)CC2)C1` + CN1CCN(c2ccc3nc(-c4c(N)c5c(F)cccc5[nH]c4=O)[nH]c3c2)CC1 [Dovitinib] (first compound 0.4 µM, partner dose 0.1 µM), the “cleaved PARP positive nuclei fraction” value in experiment [1] came to 279%; in experiment [2], 283%; in experiment [3] it was 77.8%; in experiment [4] it was 153%; in experiment [5], 336%; in experiment [6] it was 172%. Also, the entries for the “cleaved PARP positive nuclei fraction” value in experiment [7] and in experiment [8] were 194% and 226%, respectively.

As to `C[C@]1(O)C[C@@H](c2nc(-c3ccc4ccc(-c5ccccc5)nc4c3)c3c(N)nccn32)C1` + CNC(=O)c1cc(Oc2ccc(NC(=O)Nc3ccc(Cl)c(C(F)(F)F)c3)cc2)ccn1 [sorafenib] (first compound 0.4 µM, partner dose 0.4 µM), the “cleaved PARP positive nuclei fraction” value in experiment [1] was found to be 110%; in experiment [2], 55.5%; in experiment [3] it was 110%; in experiment [4] it was 124%; in experiment [5], 36.6%; in experiment [6], 109%. Besides, the “cleaved PARP positive nuclei fraction” value in experiment [7] was found to be 43%; in experiment [8], 363%.

Turning to `CC1(C)CCC(c2ccc(Cl)cc2)=C(CN2CCN(c3ccc(C(=O)NS(=O)(=O)c4ccc(N[C@H](CCN5CCOCC5)CSc5ccccc5)c(S(=O)(=O)C(F)(F)F)c4)cc3)CC2)C1` + C[C@]1(c2nc3c(C(N)=O)cccc3[nH]2)CCCN1 [Veliparib] (first compound 0.4 µM, partner dose 1.4 µM), the “cleaved PARP positive nuclei fraction” value in experiment [1] was 323%; in experiment [2] it was 378%; in experiment [3], 203%; in experiment [4], 329%; in experiment [5], 95.5%; in experiment [6] it was 266%. The “cleaved PARP positive nuclei fraction” value worked out at 250% in experiment [7] and 97.9% in experiment [8].

Consider `CC(=O)O[C@@]12CO[C@@H]1C[C@H](O)[C@@]1(C)C(=O)[C@H](O)C3=C(C)[C@@H](OC(=O)[C@H](O)[C@@H](NC(=O)OC(C)(C)C)c4ccccc4)C[C@@](O)([C@@H](OC(=O)c4ccccc4)[C@H]21)C3(C)C` [Docetaxel] + C[C@@H](Oc1cc(-c2cnn(C3CCNCC3)c2)cnc1N)c1c(Cl)ccc(F)c1Cl [Crizotinib] (first compound 0.0001 µM, partner dose 0.2 µM), for which the “cleaved PARP positive nuclei fraction” value amounted to 701% in experiment [1]; 518% in experiment [2]; 219% in experiment [3]; 173% in experiment [4]; 777% in experiment [5]; 566% in experiment [6]. The “cleaved PARP positive nuclei fraction” value in experiment [7] was found to be 164%; in experiment [8], 117%.

As for `NC(=O)c1ccc(N(C(N)=O)c2c(F)cccc2F)nc1-c1ccc(F)cc1F` + CN(c1ncccc1CNc1nc(Nc2ccc3c(c2)CC(=O)N3)ncc1C(F)(F)F)S(C)(=O)=O [PF562271] (first compound 0.4 µM, partner dose 0.08 µM), the “cleaved PARP positive nuclei fraction” value stood at 106% in experiment [1]; 104% in experiment [2]; 134% in experiment [3]; 69.3% in experiment [4]; 117% in experiment [5]; 167% in experiment [6]. Besides, the “cleaved PARP positive nuclei fraction” value in experiment [7] was found to be 40.5%; in experiment [8], 216%.

With `CCN(CC)CCNC(=O)c1c(C)[nH]c(/C=C2\C(=O)Nc3ccc(F)cc32)c1C` [sunitinib] + CC(C)C[C@H](NC(=O)[C@H](Cc1ccccc1)NC(=O)c1cnccn1)B(O)O [Bortezomib] (first compound 0.4 µM, partner dose 0.001 µM), the “cleaved PARP positive nuclei fraction” value in experiment [1] worked out at 109%; in experiment [2] it was 82.7%; in experiment [3], 131%; in experiment [4], 160%; in experiment [5], 71%; in experiment [6], 67.8%. For the same compound, the “cleaved PARP positive nuclei fraction” value was determined as 72% in experiment [7] and 73% in experiment [8].
